Consider 1 molecule from article PMC6033357.

The test has as its target T1, Nucleus accumbens-associated protein 1 (NAC1), endogenous (human (endogenous in HeLa, ovarian cancer cell lines and HEK293T)) (UniProt Q96RE7).
T1 sequence: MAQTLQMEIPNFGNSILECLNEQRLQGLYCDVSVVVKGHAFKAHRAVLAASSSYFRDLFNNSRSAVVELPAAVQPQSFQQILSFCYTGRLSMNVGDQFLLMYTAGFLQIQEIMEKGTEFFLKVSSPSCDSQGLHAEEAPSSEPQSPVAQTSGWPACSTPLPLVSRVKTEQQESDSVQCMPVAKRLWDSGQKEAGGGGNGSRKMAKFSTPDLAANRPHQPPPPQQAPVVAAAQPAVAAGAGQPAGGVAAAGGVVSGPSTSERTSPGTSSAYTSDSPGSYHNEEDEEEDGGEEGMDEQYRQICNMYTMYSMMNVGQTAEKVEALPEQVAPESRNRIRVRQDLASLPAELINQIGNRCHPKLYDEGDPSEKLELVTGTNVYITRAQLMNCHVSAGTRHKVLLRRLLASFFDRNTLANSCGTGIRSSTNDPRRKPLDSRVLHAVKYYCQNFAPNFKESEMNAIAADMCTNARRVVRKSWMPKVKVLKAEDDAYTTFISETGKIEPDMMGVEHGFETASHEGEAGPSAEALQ
In words: co-IP; FLAG-tagged wild-type or truncated CARM1 expressed in HEK293T cells, immunoprecipitated with anti-NAC1 antibody (endogenous NAC1), Western blotting. On the technique in general: Immunoblotting shows a protein as a band on a membrane.

These are yes or no findings as the source states them, for the method shown. Binding seen in cells or lysates may run through a third protein. Tags and fused reporters may be left off the sequences shown.

B1: FLAG-tagged CARM1-D2 (residues 2-483, ΔC-terminal) (domain or fragment, UniProt Q86X55 2-483)
chain: AAAAAAVGPGAGGAGSAVPGGAGPCATVSVFPGARLLTIGDANGEIQRHAEQQALRLEVRAGPDSAGIALYSHEDVCVFKCSVSRETECSRVGKQSFIITLGCNSVLIQFATPNDFCSFYNILKTCRGHTLERSVFSERTEESSAVQYFQFYGYLSQQQNMMQDYVRTGTYQRAILQNHTDFKDKIVLDVGCGSGILSFFAAQAGARKIYAVEASTMAQHAEVLVKSNNLTDRIVVIPGKVEEVSLPEQVDIIISEPMGYMLFNERMLESYLHAKKYLKPSGNMFPTIGDVHLAPFTDEQLYMEQFTKANFWYQPSFHGVDLSALRGAAVDEYFRQPVVDTFDIRILMAKSVKYTVNFLEAKEGDLHRIEIPFKFHMLHSGLVHGLAFWFDVAFIGSIMTVWLSTAPTEPLTHWYQVRCLFQSPLFAKAGDTLSGTCLLIANKRQSYDISIVAQVDQTGSKSSNLLDLKNPFFRYTGTTPSP
Consider B1, for which the binding entry is reported as “no binding”.
